# Literature values as cited in US20240264148A1, “SYSTEM AND METHOD OF IDENTIFYING BIOMARKERS FOR CHEMO-RESISTANCE IN CANCER AND IDENTIFYING TARGETS THAT CAN REVERSE CHEMO-RESISTANCE IN CANCER” (OROC, priority 2019, published 2024).
# At least one compound was matched to its structure with a doubt left.
# Test system: carboplatin resistant ovarian cancers
smiles,measurement,value
CN1CCN(CCOc2cc(OC3CCOCC3)c3c(Nc4c(Cl)ccc5c4OCO5)ncnc3c2)CC1 [Saracatinib],clinical efficiency of paclitaxel,does not improve clinical efficiency of paclitaxel
